Source: PMC7825114, “Studying GGDEF Domain in the Act: Minimize Conformational Frustration to Prevent Artefacts” (Life, 2021)
Results are given in words; binding and its absence hold for the method and conditions named.

Target: YfiN GGDEF domain (PA1120-E232start) (P. aeruginosa) (UniProt Q9I4L5)
Assay: crystal structure; X-ray structure of YfiN GGDEF with Mg2+ at 2.8 Å; 3 monomers in the asymmetric unit; interfaces of the crystal lattice analysed with the PISA server; both purified

B1: YfiN GGDEF domain (PA1120-E232start) (domain or fragment, UniProt Q9I4L5 232-435)
chain: ESWQARLQDENASLAHQAHHDSLTSLPNRAFFEGRLSRALRDANEHREQLAVLFIDSDRFKEINDRLGHAAGDTVLVNIAMRIRGQLRESDLVARLGGDEFAVLLAPLASGADALRIADNIIASMQAPIRLSDGSTVSTSLTIGIALYPEHADTPAALLHDADMAMYIAKRQARGSRRLAELNDPRILQEEKEIDSATPEAPPK
- binding: no binding
